# Data taken from patent publication US8865192B2, “Flavor oils with reduced sulfur content and use in oral care compositions” (The Procter & Gamble Co, priority 2006, dated 2014).
# Test: Compounds removed by water washing rectified peppermint oil, SPME GC-MS before/after
# Assay type: physicochemical
# Conditions: water washing 5 hours + 7 hours fresh water, 1:1 water to oil, gentle stirring; estimated from chromatograms
row,SMILES,~% Reduction
1,"CCCC(C)=O [Compound 19, 2-Pentanone]",~35%
2,"CC(C)CC=O [Compound 17, 3-Methyl butanal]",~50%
3,"CC(C)=O [Compound 4, Acetone]",~65%
4,"CCCCCC=O [Compound 26, Hexanal]",~15%
5,"CO [Compound 1, Methanol]",~95%
6,"CC(C)CO [Compound 15, 2-Methyl-1-propanol]",~40%
7,"OC1CCCC1 [Compound 20, Cyclopentanol]",~35%
8,"CCC(C)C=O (stereo not shown) [Compound 18, 2-Methyl butanal]",~50%
9,"CCc1ccco1 [Compound 21, 2-Ethyl furan]",~20%
10,"CCC(C)=O [Compound 12, 2-Butanone]",~70%
11,"c1ccoc1 [Compound 5, Furan]",~90%
12,"COC(C)=O [Compound 7, Acetic acid methyl ester]",~85%
13,"C[S+](C)[O-] [Compound 27, Dimethyl sulfoxide]",99^+ %
14,"C/C=C(\C)C=O [Compound 23, 2-Methyl crotonaldehyde]",~30%
15,"CC(C)C=O [Compound 10, 2-Methyl propanal]",~60%
16,"CC(=O)O [Compound 11, Acetic acid]",~70%
17,"CSC [Compound 8, Dimethyl sulfide]",99^+ %
18,"Cc1ccco1 [Compound 13, 2-Methyl furan]",~70%
19,"Cc1ccoc1 [Compound 14, 3-Methyl furan]",~70%
20,"CSSC [Compound 24, Dimethyl disulfide]",~40%
21,"CCCC=CC=O [Compound 29, 2-Hexenal]",~15%
22,"COC=O [Compound 2, Methyl formate]",~95%
23,"S=C=S [Compound 9, Carbon disulfide]",~90%
24,"O=Cc1ccco1 [Compound 28, Furfural]",~35%
25,"CC(C)=CC=O [Compound 25, 3-Methyl crotonaldehyde]",~30%
26,"CCO [Compound 3, Ethanol]",~95%
27,"C/C=C/C=O [Compound 16, Crotonaldehyde]",~60%
28,"CCC1CCC(CC)O1 (stereo not shown) [Compound 30, 2,5-Diethyl THF]",~5%
29,"CCC(C)CO (stereo not shown) [Compound 22, 2-Methyl-1-butanol]",~15%

# Same assay, conditions: water washing 5 hours + 7 hours, 1:1 water to oil
row,SMILES,concentration change of major components by water washing
1,CC1CCC(C(C)C)C(O)C1 (stereo not shown) [menthol],not significantly changed
2,C=C1CCC2CC1C2(C)C (stereo not drawn) [beta-pinene],not significantly changed
3,CC1=CCC2CC1C2(C)C (stereo not drawn) [alpha-pinene],not significantly changed
4,C=C(C)[C@H]1CC=C(C)CC1 [limonene],not significantly changed
5,CC(C)[C@@H]1CC[C@@H](C)CC1=O [menthone],not significantly changed

# Counter-ions that a name gives are not always drawn. Some entries repeat one wording, which the source may state once for all of them.
